# Test results as given in PubChem BioAssay AID445 (National Center for Advancing Translational Sciences (NCATS), 2006).
# This is one part of the list. Further columns of the screen follow, without active or inactive calls. Compounds called inactive in the main read-out are mostly missing here. Potencies come from curve fits of mixed quality, noted in brackets.
# Test: IkB Signaling
# Settings: ABC-DLBCL IkBa-CBG/CBR dual luciferase ratio (green luciferase fused to IkBa over red control in OCI-Ly3 lymphoma cells), 4 h; measured here: control luc red channel unless noted
# Outline: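 Luminescence ratio of IκBα-fused green versus native red beetle luciferase in OCI-Ly3 cells, 4 h post-doxycycline with compound; red signal alone, scaled from basal (0%) to zero light (-100%), flagged nonspecific or cytotoxic effects.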
row,Compound,AC50
1,CCC(C)N1CC(O)=C(c2nc3ccccc3[nH]2)C1=N (centres undefined),"31.6 µM [rising, single point] [measured here: IkB-luc green channel]"
2,Cc1ccc(-n2ncc(C(=O)NCc3cccs3)c2C2CCN(C(=O)OC(C)(C)C)CC2)cc1,"31.6 µM [falling, partial curve]"
3,COc1ccccc1NC(=O)C(C)Sc1nnc2ccc3ccccc3n12 (centres undefined),"0.158 µM [falling, full curve, poor fit]"
4,CCc1cccc2c(-c3ccccc3)nc(SCC(=O)Nc3ccccc3OC)nc12,"10 µM [falling, partial curve]"
5,Nc1c(C(=O)NCCN2CCOCC2)c2nc3ccccc3nc2n1CCc1ccccc1F,"15.8 µM [falling, partial curve]"
6,COc1ccc(OCC(=O)N2CCC(c3nc4ccccc4s3)CC2)cc1,"15.8 µM [falling, partial curve]"
7,O=C(NC1CCCC1)c1ccc(CSc2nc3ccncc3n2Cc2cccc(F)c2)cc1,"25.1 µM [falling, single point]"
8,O=C(OCCCCN1C(=O)c2ccccc2C1=O)c1n[nH]c2ccccc12,"10 µM [falling, partial curve]"
9,CCn1ccc2cc(S(=O)(=O)N3CCC(C(=O)NCCc4ccccc4Cl)CC3)ccc21,"10 µM [falling, full curve]"
10,CCc1ccc(C(=O)c2cnc3ccc(F)cc3c2S(=O)(=O)c2ccccc2)cc1,"1.58 µM [falling, partial curve]"
11,COc1ccccc1Cn1cc(C(=O)c2ccc(Cl)cc2)c(=O)c2ccccc21,"31.6 µM [falling, single point]"
12,CCN(CC)C(=O)C1CCCN(c2ncnc3c2cnn3-c2cccc(C)c2)C1 (centres undefined),"25.1 µM [falling, partial curve]"
13,Brc1ccc(-c2csc(/N=C/N3CCOCC3)n2)cc1,"39.8 µM [falling, single point]"
14,COc1ccc(C(=O)N(Cc2cc(OC)c(OC)c(OC)c2)c2ccccn2)cc1,"0.0794 µM [falling, full curve, poor fit]"
15,O=C(Cn1c(=O)nc(-c2ccccc2)c2ccccc21)NCCc1ccc(Cl)cc1,"20 µM [falling, single point]"
16,CC1Cc2cc(S(=O)(=O)CCC(=O)NCc3ccc(Cl)cc3)ccc2N1C(=O)C1CC1 (centres undefined),"25.1 µM [falling, single point]"
17,COC(=O)c1cc(NS(=O)(=O)c2ccc3c(c2)CCC(=O)N3)cc(C(=O)OC)c1,"12.6 µM [falling, partial curve]"
18,Cc1ccc(Cl)cc1NS(=O)(=O)c1ccc2c(c1)NC(=O)CCS2,"20 µM [falling, single point]"
19,COc1ccccc1OCCCSc1nc(-c2ccc(C(C)(C)C)cc2)nc2cc(=O)[nH]n12,"39.8 µM [falling, single point]"
20,COc1ccccc1CNC(=O)C1CCCN(C(=O)c2cnn(-c3ccc(F)cc3)c2-n2cccc2)C1 (centres undefined),"15.8 µM [falling, partial curve, poor fit]"

row,Compound,AC50
1,CCCn1c(CN2CCCCC2CC)nc2c1c(=O)n(C)c(=O)n2C (centres undefined),"31.6 µM [rising, partial curve] [measured here: IkB-luc green channel]"
2,Cc1ccc(NC(=O)C(Cc2ccccc2)n2cccc2)cc1 (centres undefined),"31.6 µM [falling, single point]"
3,O=C(NC1CCCCC1)N1CCc2[nH]c3ccccc3c2C1,"10 µM [falling, partial curve]"
4,COc1ccc(CNC(=O)Cn2ncc3c4ccccc4n(Cc4cccc(Cl)c4)c3c2=O)cc1,"10 µM [falling, partial curve]"
5,OCCN1CCN(CCCN2c3ccccc3Sc3ccc(C(F)(F)F)cc32)CC1,"5.01 µM [falling, partial curve, poor fit] [measured here: IkB-luc green channel]"
6,CN1CCc2c(sc3c2C(=O)NC(c2ccc(OC(=O)c4ccccc4)cc2)N3)C1 (centres undefined),"0.0794 µM [rising, full curve, poor fit]"
7,COc1ccc(OC)c(NCc2cccn2-c2nnc(N3CCCCC3)s2)c1,"15.8 µM [falling, partial curve]"
8,COc1ccc(C)cc1NC(=O)c1ccc2c(=O)n3c(nc2c1)CCCCC3,"31.6 µM [falling, single point]"
9,COc1ccc(-c2nnc(SCC(=O)Nc3ccccc3OC)o2)cc1,"2.51 µM [falling, partial curve]"
10,Cc1cccc(-c2nc3c4ccccc4nc(N4CCN(c5ccccc5F)CC4)n3n2)c1,"7.94 µM [rising, partial curve]"
11,CCn1cc(C(=O)OCC(=O)OC2CC(C)CCC2C(C)C)c(=O)c2ccc(C)nc21 (centres undefined),"31.6 µM [falling, single point]"
12,Cc1ccc(CNC(=O)NCc2noc3ccc(C)cc23)cc1,"25.1 µM [falling, single point]"
13,Cn1c(=O)c2c(-c3ccc(Cl)cc3)n(Cc3ccc(Cl)cc3)cc2n(C)c1=O,"10 µM [falling, partial curve]"
14,CCOc1ccc(C(c2c(O)cc(C)n(CCOC)c2=O)N2CCN(c3ccccc3)CC2)cc1 (centres undefined),"39.8 µM [falling, single point]"
15,O=C(CSc1nnc(COc2cccc3ccccc23)o1)N1CCN(C(=O)c2ccco2)CC1,"31.6 µM [falling, partial curve]"
16,COc1ccc(-c2noc(N3CCC(C(=O)Nc4ccc(F)cc4Cl)CC3)n2)cc1,"15.8 µM [falling, partial curve]"
17,CCN(C(=O)CCS(=O)(=O)c1cc2[nH]c(=O)c(=O)[nH]c2cc1C)c1ccccc1,"39.8 µM [falling, single point]"
18,Cc1cc2oc(=O)cc(CN3CCN(C/C=C/c4ccccc4)CC3)c2cc1O,"15.8 µM [falling, partial curve]"
19,Cc1ccc2sc(N3CCN(C(=O)CCS(=O)(=O)c4ccc(Cl)cc4)CC3)nc2c1C,"31.6 µM [rising, single point]"

# Part of the list above in another layout:
row | Compound | AC50
9 | COc1ccc(-c2nnc(SCC(=O)Nc3ccccc3OC)o2)cc1 | 2.51 µM [falling, partial curve]
10 | Cc1cccc(-c2nc3c4ccccc4nc(N4CCN(c5ccccc5F)CC4)n3n2)c1 | 7.94 µM [rising, partial curve]
